Values of other authors in patent US20160024130.
Changes are numbered by the printed parent chain. For at least one entry, the source does not settle the construct or the ends of the probe. For some assays here: Where a protein sequence is shown, tags need not be part of it.

Protein sequences, listed by entry. Tags and fused reporters are not part of them. Lines headed by an entry give the natural chain unless they say otherwise; changes in a name come on top.
UniProt P11308: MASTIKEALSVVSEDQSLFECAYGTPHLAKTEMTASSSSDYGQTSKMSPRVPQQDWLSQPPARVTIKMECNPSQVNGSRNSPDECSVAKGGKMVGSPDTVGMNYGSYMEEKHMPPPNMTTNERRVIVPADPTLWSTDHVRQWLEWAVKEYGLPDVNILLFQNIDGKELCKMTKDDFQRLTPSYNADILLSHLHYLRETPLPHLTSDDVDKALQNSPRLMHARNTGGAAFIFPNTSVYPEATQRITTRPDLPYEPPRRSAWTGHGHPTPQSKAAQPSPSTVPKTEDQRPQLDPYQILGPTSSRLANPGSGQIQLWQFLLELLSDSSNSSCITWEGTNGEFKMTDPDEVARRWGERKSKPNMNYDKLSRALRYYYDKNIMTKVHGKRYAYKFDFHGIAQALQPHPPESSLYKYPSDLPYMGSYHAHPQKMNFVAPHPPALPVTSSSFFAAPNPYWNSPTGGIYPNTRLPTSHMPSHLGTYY

Key:
[1] = biological target: T1, FLI1 DNA binding domain (several constructs, exact boundaries not stated) (UniProt Q01543); assay: binding assay; settings: data not shown; method not stated; purified recombinant protein; only the motif is given
T1 sequence (limits assumed): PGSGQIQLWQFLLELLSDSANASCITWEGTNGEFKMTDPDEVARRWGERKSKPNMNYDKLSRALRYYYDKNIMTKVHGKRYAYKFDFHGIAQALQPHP

EWS-FLI1 = assay: binding assay; settings: data not shown; method not stated; purified recombinant protein; only the motif is given
ERG DNA binding domain = biological target: T2, ERG DNA binding domain (UniProt P11308); assay: structure; settings: CITED Regan et al. 2013 crystal structure; purified recombinant protein; only the motif is given
T2 sequence (limits assumed): T1 sequence (limits assumed) with A20S, A22S

Row | Sequence | binding result [1] | binding result (EWS-FLI1) | binding result (ERG DNA binding domain)
1 | GGAA (double strand) [ETS consensus DNA with central GGAA (only core printed)] | binds | binds | binds
2 | GGAA (double strand) [GGAA repeat DNA (only repeat unit printed)] | binds | binds | 
